This is one part of the list.
Compound: CN(C)CC(=O)Nc1ccc2[nH]c(=O)c3ccccc3c2c1
Experiment: log2 fold change, soluble protein after heating vs DMSO (PISA); higher = thermal stabilisation; K562 cells, 10 uM, 30 min; active = over 0.2 and 3.5 SD of the protein, either way, in both replicates (recomputed)
Procedure, shortened: (§1)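 For each measurement, 10 μM compound was applied for 30 min to K562 cells at 2×10^6 cells/mL. Aliquots were heated for 3 min across 48°C-58°C, pooled, and extracted in PBS with 0.5% NP-40 at 4°C; the supernatant after 21,000xg for 90 min was soluble protein. This was quantified by TMTpro 16plex LC-MS/MS with channel sums equalised, and thermal stability was reported relative to control samples from duplicates, on a log2 fold-change scale.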

Chains of the proteins cited; added tags and fusions are not shown. Lines headed by an entry give the natural chain unless they say otherwise; changes in a name come on top.
UniProt O60716: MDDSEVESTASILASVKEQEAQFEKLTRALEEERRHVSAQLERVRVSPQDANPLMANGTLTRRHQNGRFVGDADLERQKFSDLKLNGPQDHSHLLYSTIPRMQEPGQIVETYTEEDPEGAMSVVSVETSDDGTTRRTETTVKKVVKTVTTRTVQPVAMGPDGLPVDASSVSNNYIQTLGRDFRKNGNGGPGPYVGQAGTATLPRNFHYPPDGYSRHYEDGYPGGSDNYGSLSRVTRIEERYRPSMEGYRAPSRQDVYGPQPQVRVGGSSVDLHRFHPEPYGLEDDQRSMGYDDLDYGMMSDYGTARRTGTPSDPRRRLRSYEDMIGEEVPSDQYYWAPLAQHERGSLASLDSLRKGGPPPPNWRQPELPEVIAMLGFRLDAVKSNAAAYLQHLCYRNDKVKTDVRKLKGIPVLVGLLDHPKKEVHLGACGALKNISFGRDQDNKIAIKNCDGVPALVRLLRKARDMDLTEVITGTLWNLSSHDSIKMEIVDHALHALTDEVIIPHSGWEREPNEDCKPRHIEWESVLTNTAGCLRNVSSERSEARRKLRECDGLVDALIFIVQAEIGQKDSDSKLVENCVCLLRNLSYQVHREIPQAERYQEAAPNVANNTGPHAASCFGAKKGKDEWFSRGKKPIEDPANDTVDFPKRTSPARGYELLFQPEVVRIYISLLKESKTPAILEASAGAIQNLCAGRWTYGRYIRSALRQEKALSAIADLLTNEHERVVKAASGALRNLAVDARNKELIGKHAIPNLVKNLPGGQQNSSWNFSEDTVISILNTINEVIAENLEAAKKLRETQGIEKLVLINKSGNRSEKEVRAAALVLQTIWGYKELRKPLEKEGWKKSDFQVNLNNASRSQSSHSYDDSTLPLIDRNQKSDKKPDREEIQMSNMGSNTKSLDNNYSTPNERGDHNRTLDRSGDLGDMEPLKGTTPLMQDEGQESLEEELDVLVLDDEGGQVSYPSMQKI
UniProt Q9NXF7, whole entry, looked up: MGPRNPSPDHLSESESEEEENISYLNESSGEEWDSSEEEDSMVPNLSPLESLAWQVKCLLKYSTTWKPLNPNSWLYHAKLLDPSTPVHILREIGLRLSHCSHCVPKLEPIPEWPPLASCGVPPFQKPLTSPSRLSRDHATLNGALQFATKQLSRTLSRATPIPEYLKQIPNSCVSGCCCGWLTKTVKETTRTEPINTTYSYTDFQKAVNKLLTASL
UniProt P33240: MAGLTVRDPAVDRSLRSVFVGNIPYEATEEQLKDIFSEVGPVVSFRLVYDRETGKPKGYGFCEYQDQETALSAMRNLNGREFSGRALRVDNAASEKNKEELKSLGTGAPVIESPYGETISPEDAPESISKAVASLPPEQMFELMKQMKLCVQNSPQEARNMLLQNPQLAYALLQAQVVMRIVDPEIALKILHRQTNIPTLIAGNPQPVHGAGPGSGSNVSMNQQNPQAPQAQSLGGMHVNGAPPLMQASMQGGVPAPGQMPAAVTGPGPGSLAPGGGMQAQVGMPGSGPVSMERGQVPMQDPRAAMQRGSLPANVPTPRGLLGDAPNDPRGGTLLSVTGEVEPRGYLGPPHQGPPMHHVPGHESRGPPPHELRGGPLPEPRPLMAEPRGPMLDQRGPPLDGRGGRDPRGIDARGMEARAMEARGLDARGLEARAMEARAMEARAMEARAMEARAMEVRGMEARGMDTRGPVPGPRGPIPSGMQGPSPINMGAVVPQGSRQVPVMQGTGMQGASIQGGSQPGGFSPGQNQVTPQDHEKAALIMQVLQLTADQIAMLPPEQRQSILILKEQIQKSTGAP
UniProt Q9H773: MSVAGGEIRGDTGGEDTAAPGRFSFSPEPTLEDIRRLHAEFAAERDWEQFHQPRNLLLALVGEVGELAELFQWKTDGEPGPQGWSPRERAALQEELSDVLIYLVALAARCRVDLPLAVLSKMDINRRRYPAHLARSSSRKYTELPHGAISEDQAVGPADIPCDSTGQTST
UniProt P10619: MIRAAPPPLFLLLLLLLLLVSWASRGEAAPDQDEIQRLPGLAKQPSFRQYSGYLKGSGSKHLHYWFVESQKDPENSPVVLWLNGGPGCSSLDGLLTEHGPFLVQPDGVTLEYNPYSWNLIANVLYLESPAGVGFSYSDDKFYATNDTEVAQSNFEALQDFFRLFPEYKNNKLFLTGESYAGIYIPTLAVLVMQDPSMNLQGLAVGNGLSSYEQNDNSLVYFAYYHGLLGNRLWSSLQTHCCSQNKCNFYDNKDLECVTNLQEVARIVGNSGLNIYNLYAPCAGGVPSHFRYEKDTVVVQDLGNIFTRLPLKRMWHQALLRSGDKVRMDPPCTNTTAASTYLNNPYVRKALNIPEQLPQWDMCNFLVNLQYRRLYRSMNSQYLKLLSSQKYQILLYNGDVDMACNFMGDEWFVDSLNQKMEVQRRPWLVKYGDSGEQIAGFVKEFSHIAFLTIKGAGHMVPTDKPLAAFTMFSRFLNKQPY
UniProt Q9BTE1, whole entry, looked up: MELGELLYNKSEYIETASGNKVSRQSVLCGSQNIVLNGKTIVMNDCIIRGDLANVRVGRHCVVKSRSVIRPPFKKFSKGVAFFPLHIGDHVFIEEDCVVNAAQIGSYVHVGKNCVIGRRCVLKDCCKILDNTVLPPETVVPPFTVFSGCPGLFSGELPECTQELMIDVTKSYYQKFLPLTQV
UniProt Q9H1C7: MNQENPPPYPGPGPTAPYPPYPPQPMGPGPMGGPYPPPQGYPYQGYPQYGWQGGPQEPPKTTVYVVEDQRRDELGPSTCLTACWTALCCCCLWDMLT
UniProt P00167, whole entry, looked up: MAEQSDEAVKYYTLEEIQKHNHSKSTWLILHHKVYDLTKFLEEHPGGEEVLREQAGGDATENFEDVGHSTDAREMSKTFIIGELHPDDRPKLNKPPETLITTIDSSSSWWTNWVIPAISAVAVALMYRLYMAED
UniProt Q9Y6A2: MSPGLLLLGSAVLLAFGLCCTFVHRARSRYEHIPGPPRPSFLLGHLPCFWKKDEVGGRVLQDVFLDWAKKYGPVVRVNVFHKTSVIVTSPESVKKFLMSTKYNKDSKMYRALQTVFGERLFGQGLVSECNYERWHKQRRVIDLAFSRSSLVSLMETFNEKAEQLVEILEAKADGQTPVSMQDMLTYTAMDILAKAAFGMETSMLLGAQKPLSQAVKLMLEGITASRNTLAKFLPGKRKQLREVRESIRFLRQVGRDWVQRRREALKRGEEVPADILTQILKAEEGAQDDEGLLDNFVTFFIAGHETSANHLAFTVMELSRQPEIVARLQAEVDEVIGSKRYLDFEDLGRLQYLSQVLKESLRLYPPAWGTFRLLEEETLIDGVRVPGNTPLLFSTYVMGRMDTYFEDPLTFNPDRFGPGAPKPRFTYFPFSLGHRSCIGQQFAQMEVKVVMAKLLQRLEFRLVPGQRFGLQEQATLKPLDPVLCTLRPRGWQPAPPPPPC
UniProt P50461: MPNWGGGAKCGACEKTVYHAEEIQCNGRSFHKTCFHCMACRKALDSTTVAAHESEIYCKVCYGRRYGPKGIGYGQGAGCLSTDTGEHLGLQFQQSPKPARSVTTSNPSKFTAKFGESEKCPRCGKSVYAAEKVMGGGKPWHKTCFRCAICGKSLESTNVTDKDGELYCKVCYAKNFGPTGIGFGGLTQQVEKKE
UniProt Q8NA75: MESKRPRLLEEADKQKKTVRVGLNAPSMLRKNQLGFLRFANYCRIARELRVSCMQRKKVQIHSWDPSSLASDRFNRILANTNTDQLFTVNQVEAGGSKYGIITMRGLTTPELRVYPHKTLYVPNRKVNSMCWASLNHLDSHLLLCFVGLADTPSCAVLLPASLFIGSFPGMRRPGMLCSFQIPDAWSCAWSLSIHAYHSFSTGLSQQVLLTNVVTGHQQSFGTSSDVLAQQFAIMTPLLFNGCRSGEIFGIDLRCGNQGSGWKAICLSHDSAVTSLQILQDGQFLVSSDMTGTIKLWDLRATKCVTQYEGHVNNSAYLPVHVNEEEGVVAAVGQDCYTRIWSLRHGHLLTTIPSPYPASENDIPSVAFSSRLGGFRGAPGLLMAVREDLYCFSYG
UniProt Q8WUE5: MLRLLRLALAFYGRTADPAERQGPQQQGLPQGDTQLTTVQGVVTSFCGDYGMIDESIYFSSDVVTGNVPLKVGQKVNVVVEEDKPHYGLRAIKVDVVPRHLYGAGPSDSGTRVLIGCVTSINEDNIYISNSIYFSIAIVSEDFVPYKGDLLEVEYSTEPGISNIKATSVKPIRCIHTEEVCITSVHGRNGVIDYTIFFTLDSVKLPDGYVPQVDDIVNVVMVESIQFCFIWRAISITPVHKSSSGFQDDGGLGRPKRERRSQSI
UniProt P53355: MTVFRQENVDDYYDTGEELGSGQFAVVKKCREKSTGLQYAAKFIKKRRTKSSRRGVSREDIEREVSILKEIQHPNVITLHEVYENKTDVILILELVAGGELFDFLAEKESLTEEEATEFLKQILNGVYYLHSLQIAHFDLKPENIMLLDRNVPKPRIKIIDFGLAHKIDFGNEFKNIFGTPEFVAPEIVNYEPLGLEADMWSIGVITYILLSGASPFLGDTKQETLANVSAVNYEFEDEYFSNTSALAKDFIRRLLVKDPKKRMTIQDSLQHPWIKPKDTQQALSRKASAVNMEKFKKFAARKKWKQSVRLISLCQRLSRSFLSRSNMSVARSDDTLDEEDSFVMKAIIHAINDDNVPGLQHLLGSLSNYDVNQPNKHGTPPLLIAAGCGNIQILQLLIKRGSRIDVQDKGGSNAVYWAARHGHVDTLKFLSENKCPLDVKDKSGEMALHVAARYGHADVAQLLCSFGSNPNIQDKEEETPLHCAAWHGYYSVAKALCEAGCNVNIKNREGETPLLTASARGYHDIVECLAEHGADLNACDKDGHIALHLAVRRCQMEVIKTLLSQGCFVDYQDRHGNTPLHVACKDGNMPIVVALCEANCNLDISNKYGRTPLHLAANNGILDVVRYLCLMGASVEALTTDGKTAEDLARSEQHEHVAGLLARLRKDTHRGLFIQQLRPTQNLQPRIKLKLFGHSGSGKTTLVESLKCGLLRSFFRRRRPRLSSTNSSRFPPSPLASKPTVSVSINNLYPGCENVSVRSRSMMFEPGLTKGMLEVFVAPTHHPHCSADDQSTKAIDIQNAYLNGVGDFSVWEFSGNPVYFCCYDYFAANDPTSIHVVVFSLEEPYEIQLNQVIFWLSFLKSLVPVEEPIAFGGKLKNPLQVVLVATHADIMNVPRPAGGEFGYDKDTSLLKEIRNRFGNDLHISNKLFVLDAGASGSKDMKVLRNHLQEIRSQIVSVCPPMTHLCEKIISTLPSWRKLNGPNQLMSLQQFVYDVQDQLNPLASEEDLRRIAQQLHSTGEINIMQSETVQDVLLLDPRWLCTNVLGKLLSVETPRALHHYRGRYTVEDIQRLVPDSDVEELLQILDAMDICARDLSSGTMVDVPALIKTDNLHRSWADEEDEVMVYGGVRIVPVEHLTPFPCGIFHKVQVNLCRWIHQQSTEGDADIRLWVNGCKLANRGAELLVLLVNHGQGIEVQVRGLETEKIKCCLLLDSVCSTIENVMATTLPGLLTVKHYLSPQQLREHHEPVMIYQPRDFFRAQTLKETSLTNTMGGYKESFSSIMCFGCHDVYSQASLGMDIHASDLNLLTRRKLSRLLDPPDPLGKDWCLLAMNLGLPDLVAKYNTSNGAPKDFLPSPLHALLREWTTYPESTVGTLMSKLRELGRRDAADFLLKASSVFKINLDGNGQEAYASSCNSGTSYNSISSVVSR
UniProt Q9NXE8: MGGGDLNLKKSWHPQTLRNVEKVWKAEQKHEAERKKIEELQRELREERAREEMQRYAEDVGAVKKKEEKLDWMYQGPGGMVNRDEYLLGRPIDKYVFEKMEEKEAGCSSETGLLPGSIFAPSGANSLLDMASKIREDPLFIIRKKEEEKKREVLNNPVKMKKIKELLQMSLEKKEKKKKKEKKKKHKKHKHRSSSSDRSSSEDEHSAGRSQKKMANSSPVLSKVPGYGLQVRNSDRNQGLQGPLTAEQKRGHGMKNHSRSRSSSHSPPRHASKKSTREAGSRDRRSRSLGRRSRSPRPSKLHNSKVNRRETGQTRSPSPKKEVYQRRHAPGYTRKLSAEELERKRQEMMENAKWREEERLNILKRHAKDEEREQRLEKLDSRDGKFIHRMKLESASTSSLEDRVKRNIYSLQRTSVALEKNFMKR
UniProt Q96SQ9: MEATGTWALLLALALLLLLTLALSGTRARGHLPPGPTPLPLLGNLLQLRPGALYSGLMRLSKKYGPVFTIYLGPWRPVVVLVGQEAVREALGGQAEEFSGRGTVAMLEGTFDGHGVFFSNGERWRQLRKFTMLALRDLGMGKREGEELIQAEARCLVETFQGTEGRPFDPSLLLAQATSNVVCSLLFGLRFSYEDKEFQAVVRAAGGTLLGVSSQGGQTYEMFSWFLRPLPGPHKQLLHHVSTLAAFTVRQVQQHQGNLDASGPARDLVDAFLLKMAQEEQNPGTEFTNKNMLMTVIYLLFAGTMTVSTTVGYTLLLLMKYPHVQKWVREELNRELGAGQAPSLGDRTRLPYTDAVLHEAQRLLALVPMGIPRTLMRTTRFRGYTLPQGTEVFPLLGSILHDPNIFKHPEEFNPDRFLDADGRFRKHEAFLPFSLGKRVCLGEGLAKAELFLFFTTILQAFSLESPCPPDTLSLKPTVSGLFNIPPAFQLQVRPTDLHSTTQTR

log2 fold change, inactive:
CTNND1 (UniProt O60716) 0.009
DCAF16 (UniProt Q9NXF7) 0.073
CSTF2 (UniProt P33240) -0.048
CTSB (UniProt P07858) 0.021
DCTPP1 (UniProt Q9H773) -0.012
CTIF (UniProt O43310) 0.198
DAB2 (UniProt P98082) 0.132
CYP51A1 (UniProt Q16850) 0.015
CTSA (UniProt P10619) 0.011
CUX1 isoform 3 (UniProt P39880) -0.019

Compound: CN(CCOC1=CC=C(C=C1)C[C@H]2C(=O)NC(=O)S2)C3=CC=CC=N3 (racemic) [rosiglitazone]
Experiment: as above
Procedure, shortened: as §1

log2 fold change, inactive:
DCTN5 (UniProt Q9BTE1) 0.062
CYSTM1 (UniProt Q9H1C7) 0.012
CYB5A (UniProt P00167) 0.036
CYP46A1 (UniProt Q9Y6A2) 0.002
CSRP3 (UniProt P50461) 0.055
DCAF4L2 (UniProt Q8NA75) -0.008
CT55 (UniProt Q8WUE5) -0.036
CTNND1 (UniProt O60716) -0.059
DAPK1 isoform 3 (UniProt P53355) 0.045
CWC25 (UniProt Q9NXE8) -0.013
CYP2S1 isoform 2 (UniProt Q96SQ9) 0.101

— the supplement of paper PMC10849652
